From PMC11650987 come the findings set out here.

Results are given in words; binding and its absence hold for the method and conditions named. In cells and extracts the contact can be indirect. Binding calls can cover weak binding; strength is not graded here. For part of these data: Sequences can lack the tags named with a protein.

The target in test [1] is FLAG-tagged HBx (hepatitis B virus). In words: co-IP; lysates of transfected cells 48 h after transfection; FLAG-tagged HBx captured on anti-FLAG magnetic beads; Western blot of co-precipitated proteins. Background: A western blot detects proteins with antibodies after separation by electrophoresis.
The target in test [2] is HBx, in vitro translated (hepatitis B virus). In words: co-IP; HBx and VCPIP1 translated in vitro (TnT T7 Quick Coupled system); binding analysed as in the lysate co-IP.

B1: valosin-containing protein-interacting protein 1 (VCPIP1), endogenous (enzyme, UniProt Q96JH7 1-1222)
chain: MSQPPPPPPPLPPPPPPPEAPQTPSSLASAAASGGLLKRRDRRILSGSCPDPKCQARLFFPASGSVSIECTECGQRHEQQQLLGVEEVTDPDVVLHNLLRNALLGVTGAPKKNTELVKVMGLSNYHCKLLSPILARYGMDKQTGRAKLLRDMNQGELFDCALLGDRAFLIEPEHVNTVGYGKDRSGSLLYLHDTLEDIKRANKSQECLIPVHVDGDGHCLVHAVSRALVGRELFWHALRENLKQHFQQHLARYQALFHDFIDAAEWEDIINECDPLFVPPEGVPLGLRNIHIFGLANVLHRPIILLDSLSGMRSSGDYSATFLPGLIPAEKCTGKDGHLNKPICIAWSSSGRNHYIPLVGIKGAALPKLPMNLLPKAWGVPQDLIKKYIKLEEDGGCVIGGDRSLQDKYLLRLVAAMEEVFMDKHGIHPSLVADVHQYFYRRTGVIGVQPEEVTAAAKKAVMDNRLHKCLLCGALSELHVPPEWLAPGGKLYNLAKSTHGQLRTDKNYSFPLNNLVCSYDSVKDVLVPDYGMSNLTACNWCHGTSVRKVRGDGSIVYLDGDRTNSRSTGGKCGCGFKHFWDGKEYDNLPEAFPITLEWGGRVVRETVYWFQYESDSSLNSNVYDVAMKLVTKHFPGEFGSEILVQKVVHTILHQTAKKNPDDYTPVNIDGAHAQRVGDVQGQESESQLPTKIILTGQKTKTLHKEELNMSKTERTIQQNITEQASVMQKRKTEKLKQEQKGQPRTVSPSTIRDGPSSAPATPTKAPYSPTTSKEKKIRITTNDGRQSMVTLKSSTTFFELQESIAREFNIPPYLQCIRYGFPPKELMPPQAGMEKEPVPLQHGDRITIEILKSKAEGGQSAAAHSAHTVKQEDIAVTGKLSSKELQEQAEKEMYSLCLLATLMGEDVWSYAKGLPHMFQQGGVFYSIMKKTMGMADGKHCTFPHLPGKTFVYNASEDRLELCVDAAGHFPIGPDVEDLVKEAVSQVRAEATTRSRESSPSHGLLKLGSGGVVKKKSEQLHNVTAFQGKGHSLGTASGNPHLDPRARETSVVRKHNTGTDFSNSSTKTEPSVFTASSSNSELIRIAPGVVTMRDGRQLDPDLVEAQRKKLQEMVSSIQASMDRHLRDQSTEQSPSDLPQRKTEVVSSSAKSGSLQTGLPESFPLTGGTENLNTETTDGCVADALGAAFATRSKAQRGNSVEELEEMDSQDAEMTNTTEPMDHS
Regarding B1, in test [1], the binding result is reported as “binds”.

B2: VCPIP1, in vitro translated (enzyme, UniProt Q96JH7 1-1222)
chain: MSQPPPPPPPLPPPPPPPEAPQTPSSLASAAASGGLLKRRDRRILSGSCPDPKCQARLFFPASGSVSIECTECGQRHEQQQLLGVEEVTDPDVVLHNLLRNALLGVTGAPKKNTELVKVMGLSNYHCKLLSPILARYGMDKQTGRAKLLRDMNQGELFDCALLGDRAFLIEPEHVNTVGYGKDRSGSLLYLHDTLEDIKRANKSQECLIPVHVDGDGHCLVHAVSRALVGRELFWHALRENLKQHFQQHLARYQALFHDFIDAAEWEDIINECDPLFVPPEGVPLGLRNIHIFGLANVLHRPIILLDSLSGMRSSGDYSATFLPGLIPAEKCTGKDGHLNKPICIAWSSSGRNHYIPLVGIKGAALPKLPMNLLPKAWGVPQDLIKKYIKLEEDGGCVIGGDRSLQDKYLLRLVAAMEEVFMDKHGIHPSLVADVHQYFYRRTGVIGVQPEEVTAAAKKAVMDNRLHKCLLCGALSELHVPPEWLAPGGKLYNLAKSTHGQLRTDKNYSFPLNNLVCSYDSVKDVLVPDYGMSNLTACNWCHGTSVRKVRGDGSIVYLDGDRTNSRSTGGKCGCGFKHFWDGKEYDNLPEAFPITLEWGGRVVRETVYWFQYESDSSLNSNVYDVAMKLVTKHFPGEFGSEILVQKVVHTILHQTAKKNPDDYTPVNIDGAHAQRVGDVQGQESESQLPTKIILTGQKTKTLHKEELNMSKTERTIQQNITEQASVMQKRKTEKLKQEQKGQPRTVSPSTIRDGPSSAPATPTKAPYSPTTSKEKKIRITTNDGRQSMVTLKSSTTFFELQESIAREFNIPPYLQCIRYGFPPKELMPPQAGMEKEPVPLQHGDRITIEILKSKAEGGQSAAAHSAHTVKQEDIAVTGKLSSKELQEQAEKEMYSLCLLATLMGEDVWSYAKGLPHMFQQGGVFYSIMKKTMGMADGKHCTFPHLPGKTFVYNASEDRLELCVDAAGHFPIGPDVEDLVKEAVSQVRAEATTRSRESSPSHGLLKLGSGGVVKKKSEQLHNVTAFQGKGHSLGTASGNPHLDPRARETSVVRKHNTGTDFSNSSTKTEPSVFTASSSNSELIRIAPGVVTMRDGRQLDPDLVEAQRKKLQEMVSSIQASMDRHLRDQSTEQSPSDLPQRKTEVVSSSAKSGSLQTGLPESFPLTGGTENLNTETTDGCVADALGAAFATRSKAQRGNSVEELEEMDSQDAEMTNTTEPMDHS
For B2, the binding result in test [2] was “binds”.

B3: HA-VCPIP1 (enzyme, UniProt Q96JH7 1-1222)
chain: MSQPPPPPPPLPPPPPPPEAPQTPSSLASAAASGGLLKRRDRRILSGSCPDPKCQARLFFPASGSVSIECTECGQRHEQQQLLGVEEVTDPDVVLHNLLRNALLGVTGAPKKNTELVKVMGLSNYHCKLLSPILARYGMDKQTGRAKLLRDMNQGELFDCALLGDRAFLIEPEHVNTVGYGKDRSGSLLYLHDTLEDIKRANKSQECLIPVHVDGDGHCLVHAVSRALVGRELFWHALRENLKQHFQQHLARYQALFHDFIDAAEWEDIINECDPLFVPPEGVPLGLRNIHIFGLANVLHRPIILLDSLSGMRSSGDYSATFLPGLIPAEKCTGKDGHLNKPICIAWSSSGRNHYIPLVGIKGAALPKLPMNLLPKAWGVPQDLIKKYIKLEEDGGCVIGGDRSLQDKYLLRLVAAMEEVFMDKHGIHPSLVADVHQYFYRRTGVIGVQPEEVTAAAKKAVMDNRLHKCLLCGALSELHVPPEWLAPGGKLYNLAKSTHGQLRTDKNYSFPLNNLVCSYDSVKDVLVPDYGMSNLTACNWCHGTSVRKVRGDGSIVYLDGDRTNSRSTGGKCGCGFKHFWDGKEYDNLPEAFPITLEWGGRVVRETVYWFQYESDSSLNSNVYDVAMKLVTKHFPGEFGSEILVQKVVHTILHQTAKKNPDDYTPVNIDGAHAQRVGDVQGQESESQLPTKIILTGQKTKTLHKEELNMSKTERTIQQNITEQASVMQKRKTEKLKQEQKGQPRTVSPSTIRDGPSSAPATPTKAPYSPTTSKEKKIRITTNDGRQSMVTLKSSTTFFELQESIAREFNIPPYLQCIRYGFPPKELMPPQAGMEKEPVPLQHGDRITIEILKSKAEGGQSAAAHSAHTVKQEDIAVTGKLSSKELQEQAEKEMYSLCLLATLMGEDVWSYAKGLPHMFQQGGVFYSIMKKTMGMADGKHCTFPHLPGKTFVYNASEDRLELCVDAAGHFPIGPDVEDLVKEAVSQVRAEATTRSRESSPSHGLLKLGSGGVVKKKSEQLHNVTAFQGKGHSLGTASGNPHLDPRARETSVVRKHNTGTDFSNSSTKTEPSVFTASSSNSELIRIAPGVVTMRDGRQLDPDLVEAQRKKLQEMVSSIQASMDRHLRDQSTEQSPSDLPQRKTEVVSSSAKSGSLQTGLPESFPLTGGTENLNTETTDGCVADALGAAFATRSKAQRGNSVEELEEMDSQDAEMTNTTEPMDHS
For B3, the binding entry in test [1] is on record as “binds”.
